Values quoted from earlier work, collected in patent US20090181963A1, “3H-[1,2,3]TRIAZOLO[4,5-D]PYRIMIDINE COMPOUNDS, THEIR USE AS mTOR KINASE AND PI3 KINASE INHIBITORS, AND THEIR [sequence]” (Wyeth, priority 2008, published 2009).
For at least one compound, name, drawing or mass did not settle the structure.

Test system: human tumor xenograft models
Settings: prostate, breast, ovarian, lung, multiple myeloma, brain cancers; cited from earlier work

N=C(N)NCCC[C@H](NC(=O)CCC(=O)OC[N+]1(c2cc(=O)c3cccc(-c4ccccc4)c3o2)CCOCC1)C(=O)NCC(=O)N[C@@H](CC(=O)O)C(=O)N[C@@H](CO)C(=O)[O-] [SF-1126]
activity in preclinical mouse cancer models: active
